Experimental data as given in the supplement of paper PMC12823440, “Inhibitors supercharge kinase turnover through native proteolytic circuits” (Nature, 2025).
Where a name gives a salt, the structure may show the parent alone. The list shows a part of the results. The calls rarely recur for the same compound in another form.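 Kinases were expressed as nanoluciferase fusions in K562 cells and luminescence was read every 4 h between 2 and 18 h as percent of control, DMSO set to 100% and a positive control to 0%. A time point counts as decreased when the signal drops significantly (2 sigma). The hit call is the authors' own, does not follow from the count of time points alone, and its rule is not shown.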

Amino acid sequences for entries named in this document (tags omitted). A change or cut given only in a name is not applied to a line headed by its entry.
UniProt P36888, whole entry: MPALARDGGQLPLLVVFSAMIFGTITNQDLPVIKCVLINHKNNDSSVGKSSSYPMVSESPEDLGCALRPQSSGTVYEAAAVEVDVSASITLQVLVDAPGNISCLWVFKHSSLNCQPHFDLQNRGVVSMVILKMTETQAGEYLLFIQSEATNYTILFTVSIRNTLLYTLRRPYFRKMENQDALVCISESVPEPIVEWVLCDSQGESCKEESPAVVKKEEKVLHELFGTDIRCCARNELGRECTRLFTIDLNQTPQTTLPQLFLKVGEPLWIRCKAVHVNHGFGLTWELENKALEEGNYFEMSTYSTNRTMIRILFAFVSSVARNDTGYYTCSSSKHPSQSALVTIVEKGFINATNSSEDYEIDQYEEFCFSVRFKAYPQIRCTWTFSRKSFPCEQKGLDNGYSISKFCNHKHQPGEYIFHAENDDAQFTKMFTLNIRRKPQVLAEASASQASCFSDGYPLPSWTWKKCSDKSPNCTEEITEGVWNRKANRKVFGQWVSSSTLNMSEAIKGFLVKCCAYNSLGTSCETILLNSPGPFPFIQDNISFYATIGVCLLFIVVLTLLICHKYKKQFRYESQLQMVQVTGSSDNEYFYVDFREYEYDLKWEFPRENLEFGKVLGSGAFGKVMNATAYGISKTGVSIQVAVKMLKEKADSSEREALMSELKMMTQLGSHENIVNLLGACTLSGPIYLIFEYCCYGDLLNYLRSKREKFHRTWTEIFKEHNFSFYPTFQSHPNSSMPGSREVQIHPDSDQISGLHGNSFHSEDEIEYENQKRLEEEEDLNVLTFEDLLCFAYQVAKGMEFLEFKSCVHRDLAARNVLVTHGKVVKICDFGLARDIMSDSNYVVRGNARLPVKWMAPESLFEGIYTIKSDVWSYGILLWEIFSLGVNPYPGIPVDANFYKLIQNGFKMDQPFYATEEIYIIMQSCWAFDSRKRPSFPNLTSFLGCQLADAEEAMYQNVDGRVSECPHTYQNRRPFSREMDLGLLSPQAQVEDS
UniProt P49840: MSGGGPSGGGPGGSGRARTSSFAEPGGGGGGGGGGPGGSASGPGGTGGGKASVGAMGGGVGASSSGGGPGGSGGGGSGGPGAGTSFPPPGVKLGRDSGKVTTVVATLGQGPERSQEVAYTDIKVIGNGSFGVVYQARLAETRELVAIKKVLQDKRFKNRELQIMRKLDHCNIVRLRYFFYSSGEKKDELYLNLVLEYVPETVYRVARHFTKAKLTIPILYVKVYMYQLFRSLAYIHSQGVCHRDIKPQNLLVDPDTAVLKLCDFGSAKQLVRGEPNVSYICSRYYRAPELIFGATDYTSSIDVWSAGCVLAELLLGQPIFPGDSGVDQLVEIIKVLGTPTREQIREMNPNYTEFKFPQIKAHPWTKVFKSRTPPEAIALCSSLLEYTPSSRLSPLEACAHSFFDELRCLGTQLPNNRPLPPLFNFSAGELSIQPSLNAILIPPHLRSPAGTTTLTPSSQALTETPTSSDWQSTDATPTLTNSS
UniProt P14616: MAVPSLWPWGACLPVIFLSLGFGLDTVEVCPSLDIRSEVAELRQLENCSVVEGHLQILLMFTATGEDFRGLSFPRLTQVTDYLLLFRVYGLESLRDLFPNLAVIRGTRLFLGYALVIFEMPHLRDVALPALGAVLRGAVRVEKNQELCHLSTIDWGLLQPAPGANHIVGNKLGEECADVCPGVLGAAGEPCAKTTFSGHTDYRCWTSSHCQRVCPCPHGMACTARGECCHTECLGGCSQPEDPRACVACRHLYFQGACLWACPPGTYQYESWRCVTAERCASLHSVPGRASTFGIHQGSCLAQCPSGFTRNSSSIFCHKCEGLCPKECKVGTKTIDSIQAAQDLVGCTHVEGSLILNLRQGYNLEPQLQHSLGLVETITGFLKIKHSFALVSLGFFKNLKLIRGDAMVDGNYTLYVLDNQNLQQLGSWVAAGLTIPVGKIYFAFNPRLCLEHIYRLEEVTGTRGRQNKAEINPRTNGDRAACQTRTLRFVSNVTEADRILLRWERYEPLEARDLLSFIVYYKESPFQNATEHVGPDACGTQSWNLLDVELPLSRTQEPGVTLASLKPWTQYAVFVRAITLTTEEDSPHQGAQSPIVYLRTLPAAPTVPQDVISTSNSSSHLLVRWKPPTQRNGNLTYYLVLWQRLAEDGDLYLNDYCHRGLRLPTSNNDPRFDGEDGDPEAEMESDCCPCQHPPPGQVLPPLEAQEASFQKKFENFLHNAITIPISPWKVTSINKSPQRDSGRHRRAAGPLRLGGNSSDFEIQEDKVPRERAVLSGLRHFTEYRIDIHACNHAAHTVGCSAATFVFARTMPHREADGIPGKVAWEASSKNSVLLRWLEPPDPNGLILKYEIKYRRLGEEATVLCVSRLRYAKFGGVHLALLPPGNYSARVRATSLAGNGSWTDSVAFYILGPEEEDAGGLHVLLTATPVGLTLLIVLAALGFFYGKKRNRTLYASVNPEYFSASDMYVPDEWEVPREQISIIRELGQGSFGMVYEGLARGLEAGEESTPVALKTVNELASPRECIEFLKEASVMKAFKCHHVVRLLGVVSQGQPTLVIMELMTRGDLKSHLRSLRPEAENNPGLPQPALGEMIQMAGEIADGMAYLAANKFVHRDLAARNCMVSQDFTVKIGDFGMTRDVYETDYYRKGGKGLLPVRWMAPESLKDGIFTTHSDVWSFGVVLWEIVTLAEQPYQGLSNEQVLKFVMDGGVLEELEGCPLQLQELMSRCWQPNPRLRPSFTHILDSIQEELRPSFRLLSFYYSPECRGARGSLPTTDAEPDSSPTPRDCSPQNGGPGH
UniProt P23458: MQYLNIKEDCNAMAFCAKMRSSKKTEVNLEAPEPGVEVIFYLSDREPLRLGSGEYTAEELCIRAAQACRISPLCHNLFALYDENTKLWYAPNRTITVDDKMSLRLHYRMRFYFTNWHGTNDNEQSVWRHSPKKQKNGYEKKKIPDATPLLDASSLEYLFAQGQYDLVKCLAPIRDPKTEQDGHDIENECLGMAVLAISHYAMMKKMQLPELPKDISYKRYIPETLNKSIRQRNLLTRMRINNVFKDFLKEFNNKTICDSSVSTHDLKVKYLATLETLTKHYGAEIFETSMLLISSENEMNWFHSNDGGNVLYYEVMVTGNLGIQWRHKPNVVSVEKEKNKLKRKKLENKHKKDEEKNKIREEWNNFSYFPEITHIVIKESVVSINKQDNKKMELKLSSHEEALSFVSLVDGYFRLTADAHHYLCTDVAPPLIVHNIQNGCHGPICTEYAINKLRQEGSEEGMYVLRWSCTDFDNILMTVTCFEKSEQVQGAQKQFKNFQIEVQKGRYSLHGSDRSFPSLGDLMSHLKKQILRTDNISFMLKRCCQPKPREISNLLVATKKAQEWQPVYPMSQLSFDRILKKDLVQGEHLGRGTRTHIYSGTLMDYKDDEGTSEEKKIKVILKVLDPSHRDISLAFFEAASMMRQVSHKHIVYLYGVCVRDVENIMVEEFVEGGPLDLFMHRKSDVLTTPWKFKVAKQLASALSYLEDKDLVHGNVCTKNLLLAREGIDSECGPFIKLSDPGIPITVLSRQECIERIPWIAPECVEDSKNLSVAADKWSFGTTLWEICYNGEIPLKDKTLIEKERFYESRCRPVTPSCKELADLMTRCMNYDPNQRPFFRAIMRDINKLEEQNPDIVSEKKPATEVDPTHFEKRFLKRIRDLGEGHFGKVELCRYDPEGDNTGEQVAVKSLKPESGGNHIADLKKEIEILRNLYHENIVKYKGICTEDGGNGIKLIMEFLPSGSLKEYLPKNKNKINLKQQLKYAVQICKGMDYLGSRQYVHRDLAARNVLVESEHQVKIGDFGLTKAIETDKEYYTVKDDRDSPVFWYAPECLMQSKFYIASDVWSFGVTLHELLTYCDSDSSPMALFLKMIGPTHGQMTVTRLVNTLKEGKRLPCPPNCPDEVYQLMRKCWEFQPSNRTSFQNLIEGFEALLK
UniProt P06239: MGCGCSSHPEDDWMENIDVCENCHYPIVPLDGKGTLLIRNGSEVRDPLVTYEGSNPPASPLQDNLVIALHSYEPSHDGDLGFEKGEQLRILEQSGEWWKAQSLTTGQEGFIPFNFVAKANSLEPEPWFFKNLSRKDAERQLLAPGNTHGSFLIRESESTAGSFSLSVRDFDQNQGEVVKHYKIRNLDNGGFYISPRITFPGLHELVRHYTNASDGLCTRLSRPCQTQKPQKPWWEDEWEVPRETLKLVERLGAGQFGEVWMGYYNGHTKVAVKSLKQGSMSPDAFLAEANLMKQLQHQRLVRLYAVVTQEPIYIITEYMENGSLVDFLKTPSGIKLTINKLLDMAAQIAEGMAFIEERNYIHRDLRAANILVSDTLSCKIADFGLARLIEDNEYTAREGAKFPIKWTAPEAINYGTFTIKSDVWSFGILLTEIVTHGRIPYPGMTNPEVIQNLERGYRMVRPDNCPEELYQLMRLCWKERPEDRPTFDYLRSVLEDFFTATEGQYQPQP
UniProt Q8IWU2: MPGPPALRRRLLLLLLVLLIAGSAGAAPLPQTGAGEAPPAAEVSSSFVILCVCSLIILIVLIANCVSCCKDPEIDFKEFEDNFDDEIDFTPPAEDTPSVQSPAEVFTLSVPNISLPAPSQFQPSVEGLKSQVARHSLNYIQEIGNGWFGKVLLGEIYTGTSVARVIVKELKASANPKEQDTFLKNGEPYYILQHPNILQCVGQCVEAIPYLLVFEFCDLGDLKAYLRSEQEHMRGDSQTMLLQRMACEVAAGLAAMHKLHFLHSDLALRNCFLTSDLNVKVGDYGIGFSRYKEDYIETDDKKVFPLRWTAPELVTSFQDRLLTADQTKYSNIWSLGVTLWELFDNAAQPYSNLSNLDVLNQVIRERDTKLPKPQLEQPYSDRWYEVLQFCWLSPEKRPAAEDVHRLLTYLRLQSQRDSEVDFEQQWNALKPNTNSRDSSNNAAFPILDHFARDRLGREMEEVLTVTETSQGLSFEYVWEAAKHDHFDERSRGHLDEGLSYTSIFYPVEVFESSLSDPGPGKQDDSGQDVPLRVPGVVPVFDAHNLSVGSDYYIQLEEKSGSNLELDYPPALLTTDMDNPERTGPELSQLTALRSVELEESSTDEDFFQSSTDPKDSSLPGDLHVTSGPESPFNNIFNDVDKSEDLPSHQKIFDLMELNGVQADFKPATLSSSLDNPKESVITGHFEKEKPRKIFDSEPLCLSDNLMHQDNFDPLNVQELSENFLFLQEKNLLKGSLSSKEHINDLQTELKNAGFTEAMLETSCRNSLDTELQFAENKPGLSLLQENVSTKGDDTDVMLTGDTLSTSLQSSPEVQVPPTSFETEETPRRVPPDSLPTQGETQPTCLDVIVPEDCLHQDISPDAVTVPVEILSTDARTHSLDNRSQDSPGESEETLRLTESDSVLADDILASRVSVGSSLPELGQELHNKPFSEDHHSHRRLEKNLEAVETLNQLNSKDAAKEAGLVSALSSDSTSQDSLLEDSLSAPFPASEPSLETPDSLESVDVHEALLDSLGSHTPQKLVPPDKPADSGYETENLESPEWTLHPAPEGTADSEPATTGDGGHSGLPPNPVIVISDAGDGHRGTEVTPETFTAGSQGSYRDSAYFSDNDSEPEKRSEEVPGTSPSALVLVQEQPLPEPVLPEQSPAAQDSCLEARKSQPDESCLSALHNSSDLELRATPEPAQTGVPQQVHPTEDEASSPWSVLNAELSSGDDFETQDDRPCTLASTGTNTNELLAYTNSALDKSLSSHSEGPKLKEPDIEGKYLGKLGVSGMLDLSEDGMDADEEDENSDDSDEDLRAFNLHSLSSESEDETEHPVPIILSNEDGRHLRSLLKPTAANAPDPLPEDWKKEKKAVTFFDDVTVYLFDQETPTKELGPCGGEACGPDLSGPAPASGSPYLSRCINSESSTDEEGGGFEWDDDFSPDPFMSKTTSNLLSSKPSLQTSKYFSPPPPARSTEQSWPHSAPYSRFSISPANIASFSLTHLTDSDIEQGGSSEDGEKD
UniProt P31152, whole entry: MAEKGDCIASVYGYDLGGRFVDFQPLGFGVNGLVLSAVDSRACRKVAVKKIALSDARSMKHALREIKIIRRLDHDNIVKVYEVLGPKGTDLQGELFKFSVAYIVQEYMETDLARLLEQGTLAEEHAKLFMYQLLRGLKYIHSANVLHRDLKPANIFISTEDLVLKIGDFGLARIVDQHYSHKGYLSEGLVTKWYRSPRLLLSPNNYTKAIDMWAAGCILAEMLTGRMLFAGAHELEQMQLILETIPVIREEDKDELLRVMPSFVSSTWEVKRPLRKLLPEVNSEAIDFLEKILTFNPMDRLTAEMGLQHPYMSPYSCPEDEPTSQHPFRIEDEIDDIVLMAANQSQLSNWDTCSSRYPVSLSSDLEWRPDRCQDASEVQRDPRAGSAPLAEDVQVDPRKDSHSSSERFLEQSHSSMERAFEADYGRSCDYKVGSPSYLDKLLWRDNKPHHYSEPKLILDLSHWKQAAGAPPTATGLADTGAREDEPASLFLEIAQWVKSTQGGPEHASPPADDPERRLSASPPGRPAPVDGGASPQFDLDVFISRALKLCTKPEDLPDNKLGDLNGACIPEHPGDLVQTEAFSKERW

Experiments:
Experiment in all cases: number of time points (of 5) at which kinase-Nluc abundance scored as decreased, DMSO-normalised (count); higher = more persistent destabilization
Conditions in all cases: K562; 2-18 h
[1] = biological target: FLT3 (UniProt P36888)
[2] = biological target: FYN (UniProt P06241)
[3] = biological target: GSK3A (UniProt P49840)
[4] = biological target: HER2 (UniProt P04626)
[5] = biological target: INSRR (UniProt P14616)
[6] = biological target: IRAK3 (UniProt Q9Y616)
[7] = biological target: JAK1 (UniProt P23458)
[8] = biological target: LCK (UniProt P06239)
[9] = biological target: LIMK1 (UniProt P53667)
[10] = biological target: LIMK2 (UniProt P53671)
[11] = biological target: LMTK2 (UniProt Q8IWU2)
[12] = biological target: LYN (UniProt P07948)
[13] = biological target: MAP2K1 (UniProt Q02750)
[14] = biological target: MAP2K2 (UniProt P36507)
[15] = biological target: MAP4K2 (UniProt Q12851)
[16] = biological target: MAPK1 (UniProt P28482)
[17] = biological target: MAPK4 (UniProt P31152)
[18] = biological target: MAPKAPK2 (UniProt P49137)
[19] = biological target: MKNK1 (UniProt Q9BUB5)
[20] = biological target: NTRK2 (UniProt Q16620)

Row | SMILES | number of time points [1] | number of time points [2] | number of time points [3] | number of time points [4] | number of time points [5] | number of time points [6] | number of time points [7] | number of time points [8] | number of time points [9] | number of time points [10] | number of time points [11] | number of time points [12] | number of time points [13] | number of time points [14] | number of time points [15] | number of time points [16] | number of time points [17] | number of time points [18] | number of time points [19] | number of time points [20]
1 | COc1cc2nnc(C(N)=O)c(Nc3ccc(C)cc3F)c2cc1N1CCN(CCO)CC1 (2.5 µM) | 0 | 0 | 0 | 0 | 0 | 0 | 0 | 0 | 0 | 0 | 0 | 0 | 0 | 0 | 0 | 0 | 0 | 0 | 0 | 
2 | CN1C(=O)N[C@@H](Cc2c[nH]c3c(Cl)cccc23)C1=O [Necrostatin 2 (S enantiomer)] (10 µM) | 0 | 0 | 0 | 0 | 0 | 0 | 0 | 0 | 0 | 0 | 0 | 0 | 0 | 0 | 0 | 0 | 0 | 0 | 0 | 
3 | COc1cc(N2CCC(N3CCN(C)CC3)CC2)ccc1Nc1ncnc(Nc2ccccc2S(=O)(=O)C(C)C)n1 (10 µM) | 0 | 0 | 0 | 0 | 0 | 0 | 0 | 0 | 0 | 0 | 0 | 0 | 0 | 0 | 0 | 0 | 0 | 0 | 0 | 
4 | CCOC(=O)c1c(N2CCc3ccc(OC)cc3C2)oc(C=C2C=Nc3ncccc32)c1O (10 µM) | 0 | 0 | 0 | 0 | 0 | 0 | 0 | 0 | 0 | 0 | 0 | 0 | 0 | 0 | 0 | 0 | 0 | 0 | 0 | 
5 | CNCc1ccccc1Sc1cccc2ccccc12 [IFN alpha-IFNAR-IN-1 (hydrochloride)] (10 µM) | 0 | 0 | 0 | 1 | 1 | 1 | 0 | 0 | 3 | 0 | 3 | 1 | 0 | 0 | 0 | 0 | 1 | 0 | 0 | 
6 | C=CC(=O)Nc1cccc(Oc2nc(Nc3ccc(N4CCN(C)CC4)cc3OC)ncc2Cl)c1 (10 µM) | 0 | 0 | 0 | 5 | 0 | 0 | 0 | 0 | 0 | 0 | 0 | 0 | 0 | 0 | 0 | 0 | 0 | 0 | 0 | 
7 | COc1cccc(-c2cc(=O)c3ccccc3o2)c1N (10 µM) | 0 | 0 | 0 | 0 | 0 | 0 | 0 | 0 | 0 | 0 | 0 | 0 | 0 | 0 | 0 | 0 | 0 | 0 | 0 | 
8 | C=CC(=O)Nc1cc(Nc2nccc(-c3cn(C)c4ccccc34)n2)c(OCC(F)(F)F)nc1N(C)CCNC [AST5902  (trimesylate)] (2.5 µM) | 0 | 3 | 0 | 3 | 0 | 0 | 0 | 0 | 1 | 1 | 0 | 0 | 0 | 0 | 0 | 0 | 0 | 0 | 4 | 
9 | CC(C)(Oc1ccc(Cl)cc1)C(=O)Nc1ccc(OCc2ccc(C#N)cc2)cc1 [AMPK activator 4] (10 µM) | 0 | 0 | 0 | 0 | 0 | 0 | 0 | 0 | 0 | 0 | 0 | 0 | 0 | 0 | 0 | 0 | 0 | 0 | 0 | 
10 | CC(=O)O[C@@H]1[C@@H](OC(C)=O)[C@@H](O)[C@H](Oc2c(-c3ccc(O)cc3)oc3cc(O)cc(O)c3c2=O)O[C@H]1C (10 µM) | 0 | 0 | 0 | 0 | 0 | 0 | 0 | 0 | 0 | 0 | 0 | 0 | 0 | 0 | 0 | 0 | 0 | 0 | 0 | 
11 | CC(C)(CCCCCC(O)CCCCCC(C)(C)C(=O)O)C(=O)O [Bempedoic acid] (10 µM) | 0 | 0 | 0 | 0 | 0 | 0 | 0 | 0 | 0 | 0 | 0 | 0 | 0 | 0 | 0 | 0 | 0 | 0 | 0 | 
12 | Cn1cnc2c(F)c(Nc3ccc(Br)cc3F)c(C(=O)NOCCO)cc21 [Binimetinib] (10 µM) | 0 | 4 | 0 | 0 | 0 | 0 | 0 | 0 | 0 | 0 | 0 | 0 | 0 | 0 | 0 | 0 | 0 | 0 | 0 | 
13 | Fc1ccc(-c2nc3n(c2-c2ccncc2)CCS3)cc1 (10 µM) | 0 | 0 | 0 | 0 | 0 | 0 | 0 | 0 | 0 | 0 | 0 | 0 | 0 | 0 | 0 | 0 | 0 | 0 | 0 | 
14 | CCc1c(C(=O)NNC(=O)[C@H](O)c2cc(F)cc(F)c2)ccc(O)c1C (10 µM) | 0 | 0 | 0 | 0 | 0 | 0 | 0 | 0 | 0 | 0 | 0 | 0 | 0 | 0 | 0 | 0 | 0 | 0 | 0 | 0
15 | Cc1ccc(C2CC(=O)NC(SCC(=O)Nc3nccs3)=C2C#N)cc1 (configuration not stated) [Necrostatin-34] (10 µM) | 0 | 0 | 0 | 0 | 0 | 0 | 0 | 0 | 0 | 0 | 0 | 0 | 0 | 0 | 0 | 0 | 0 | 0 | 0 | 0
16 | CNc1cc2c(Nc3cccc(Br)c3)ncnc2cn1 (10 µM) | 0 | 0 | 0 | 0 | 0 | 0 | 0 | 0 | 0 | 0 | 0 | 0 | 0 | 0 | 0 | 0 | 0 | 0 | 0 | 2
17 | CNCc1cc(Oc2ccc3c(ccn3C(=O)Nc3cc(C(F)(F)F)n(C)n3)c2)ncn1 [Acrizanib] (10 µM) | 0 | 0 | 0 | 0 | 0 | 0 | 0 | 0 | 0 | 0 | 0 | 0 | 0 | 0 | 0 | 0 | 0 | 0 | 0 | 0
18 | Nc1nccc(Oc2ccc3c(C(=O)Nc4cccc(C(F)(F)F)c4)cccc3c2)n1 (10 µM) | 1 | 0 | 0 | 0 | 0 | 1 | 0 | 0 | 0 | 0 | 1 | 0 | 0 | 0 | 0 | 0 | 0 | 0 | 3 | 1
19 | CCCCC(=O)OCC(=O)[C@]1(O)Cc2c(O)c3c(c(O)c2[C@@H](O[C@H]2C[C@H](NC(=O)C(F)(F)F)[C@H](O)[C@H](C)O2)C1)C(=O)c1c(OC)cccc1C3=O [Valrubicin] (10 µM) | 0 | 0 | 0 | 0 | 1 | 0 | 0 | 0 | 0 | 0 | 0 | 0 | 0 | 0 | 0 | 0 | 0 | 0 | 0 | 0
20 | Cc1cccc(-c2nn3c(c2-c2ccnc4ccc(C(N)=O)cc24)CCC3)n1 [Galunisertib] (10 µM) | 0 | 0 | 0 | 0 | 0 | 0 | 0 | 0 | 0 | 0 | 0 | 0 | 0 | 0 | 0 | 0 | 0 | 0 | 0 | 0
21 | CC(C1CC1)n1cnc2c(NCc3cccc(C(F)(F)F)c3)nc(NCCN(C)C)nc21 (configuration not stated) (10 µM) | 0 | 0 | 0 | 0 | 0 | 0 | 0 | 0 | 0 | 0 | 0 | 0 | 0 | 0 | 0 | 0 | 0 | 0 | 0 | 0
22 | Cc1ccc(NC(=O)N2CCN(c3nc(N)nc4sc(-c5cccnc5)nc34)CC2)cc1 [PI4KIII beta inhibitor 3] (10 µM) | 0 | 0 | 0 | 0 | 0 | 0 | 0 | 0 | 0 | 0 | 0 | 0 | 0 | 0 | 0 | 0 | 0 | 0 | 0 | 0
23 | O=S(=O)(c1ccc(O)cc1O)N1Cc2cc(O)cc(O)c2C1 (10 µM) | 0 | 0 | 0 | 0 | 0 | 0 | 0 | 1 | 0 | 0 | 0 | 0 | 0 | 0 | 0 | 0 | 0 | 0 | 0 | 0
24 | CO[C@]1(C(=O)N[C@@H](C)c2ccc(-n3cc(F)cn3)nc2)CC[C@H](c2nc(C)cc(Nc3cc(C)[nH]n3)n2)CC1 [Pralsetinib] (10 µM) | 0 | 0 | 0 | 0 | 0 | 0 | 0 | 0 | 0 | 0 | 0 | 0 | 0 | 0 | 0 | 0 | 0 | 0 | 0 | 0
25 | NC(=O)c1ccccc1Nc1ccnc(Nc2cccc(O)c2)n1 (10 µM) | 3 | 3 | 0 | 0 | 0 | 3 | 4 | 0 | 4 | 0 | 0 | 0 | 0 | 0 | 0 | 0 | 0 | 0 | 0 | 0

Random excerpt: two records from the list
Row | SMILES | number of time points [1] | number of time points [2] | number of time points [3] | number of time points [4] | number of time points [5] | number of time points [6] | number of time points [7] | number of time points [8] | number of time points [9] | number of time points [10] | number of time points [11] | number of time points [12] | number of time points [13] | number of time points [14] | number of time points [15] | number of time points [16] | number of time points [17] | number of time points [18] | number of time points [19] | number of time points [20]
3 | COc1cc(N2CCC(N3CCN(C)CC3)CC2)ccc1Nc1ncnc(Nc2ccccc2S(=O)(=O)C(C)C)n1 (10 µM) | 0 | 0 | 0 | 0 | 0 | 0 | 0 | 0 | 0 | 0 | 0 | 0 | 0 | 0 | 0 | 0 | 0 | 0 | 0 | 
18 | Nc1nccc(Oc2ccc3c(C(=O)Nc4cccc(C(F)(F)F)c4)cccc3c2)n1 (10 µM) | 1 | 0 | 0 | 0 | 0 | 1 | 0 | 0 | 0 | 0 | 1 | 0 | 0 | 0 | 0 | 0 | 0 | 0 | 3 | 1
